Reference: the supplement of paper PMC8728848
The list shows a part of the results.

Legend:
Assay in all cases: glycan array binding signal (z-score within array); higher = stronger binding
Details in all cases: glycan notation: IUPAC condensed, linker removed
Gal(b1-2)Gal = target: Gal(b1-2)Gal
Method in brief: (§1)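 Negative Z-scores can be read as non-binding. The Z-score is calculated within each array and then averaged across arrays of one protein sequence at different concentrations or buffers and across linkers. Arrays, 3228 in all, were curated from the Consortium for Functional Glycomics database and kept only where the protein sequence was available.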

Gal(b1-3)Gal = target: Gal(b1-3)Gal
Method in brief: as §1

Gal(b1-3)Gal(b1-4)GlcNAc = target: Gal(b1-3)Gal(b1-4)GlcNAc
Method in brief: as §1

Gal(b1-3)GalNAc = target: Gal(b1-3)GalNAc
Method in brief: as §1

[1] = target: Gal(b1-3)GalNAc(a1-3)[Fuc(a1-2)]Gal(b1-4)Glc
Method in brief: as §1

[2] = target: Gal(b1-3)GalNAc(a1-3)[Fuc(a1-2)]Gal(b1-4)GlcNAc
Method in brief: as §1

Gal(b1-3)GalNAc(b1-3)Gal = target: Gal(b1-3)GalNAc(b1-3)Gal
Method in brief: as §1

[3] = target: Gal(b1-3)GalNAc(b1-3)Gal(a1-4)Gal(b1-4)Glc
Method in brief: as §1

[4] = target: Gal(b1-3)GalNAc(b1-4)Gal(b1-4)Glc
Method in brief: as §1

[5] = target: Gal(b1-3)GalNAc(b1-4)[Neu5Ac(a2-3)]Gal(b1-4)Glc
Method in brief: as §1

Gal(b1-3)GlcNAc = target: Gal(b1-3)GlcNAc
Method in brief: as §1

[6] = target: Gal(b1-3)GlcNAc(a1-3)Gal(b1-4)GlcNAc
Method in brief: as §1

[7] = target: Gal(b1-3)GlcNAc(a1-6)Gal(b1-4)GlcNAc
Method in brief: as §1

Gal(b1-3)GlcNAc(b1-2)Man = target: Gal(b1-3)GlcNAc(b1-2)Man
Method in brief: as §1

[8] = target: Gal(b1-3)GlcNAc(b1-2)Man(a1-3)[Gal(b1-3)GlcNAc(b1-2)Man(a1-6)]Man(b1-4)GlcNAc(b1-4)GlcNAc
Method in brief: as §1

[9] = target: Gal(b1-3)GlcNAc(b1-2)Man(a1-3)[Gal(b1-3)GlcNAc(b1-2)Man(a1-6)]Man(b1-4)GlcNAc(b1-4)[Fuc(a1-6)]GlcNAc
Method in brief: as §1

[10] = target: Gal(b1-3)GlcNAc(b1-2)Man(a1-3)[GlcNAc(b1-4)][Gal(b1-3)GlcNAc(b1-2)Man(a1-6)]Man(b1-4)GlcNAc(b1-4)GlcNAc
Method in brief: as §1

[11] = target: Gal(b1-3)GlcNAc(b1-2)[Gal(b1-3)GlcNAc(b1-6)]Man(a1-6)[Gal(b1-3)GlcNAc(b1-2)Man(a1-3)]Man(b1-4)GlcNAc(b1-4)GlcNAc
Method in brief: as §1

[12] = target: Gal(b1-3)GlcNAc(b1-3)Gal(b1-3)GlcNAc
Method in brief: as §1

[13] = target: Gal(b1-3)GlcNAc(b1-3)Gal(b1-4)Glc
Method in brief: as §1

[14] = target: Gal(b1-3)GlcNAc(b1-3)Gal(b1-4)GlcNAc
Method in brief: as §1

[15] = target: Gal(b1-3)GlcNAc(b1-3)Gal(b1-4)GlcNAc(b1-2)Man(a1-3)[Gal(b1-3)GlcNAc(b1-3)Gal(b1-4)GlcNAc(b1-2)Man(a1-6)]Man(b1-4)GlcNAc(b1-4)GlcNAc
Method in brief: as §1

[16] = target: Gal(b1-3)GlcNAc(b1-3)Gal(b1-4)GlcNAc(b1-2)[Gal(b1-3)GlcNAc(b1-3)Gal(b1-4)GlcNAc(b1-6)]Man(a1-6)[Gal(b1-3)GlcNAc(b1-3)Gal(b1-4)GlcNAc(b1-2)Man(a1-3)]Man(b1-4)GlcNAc(b1-4)[Fuc(a1-6)]GlcNAc
Method in brief: as §1

[17] = target: Gal(b1-3)GlcNAc(b1-3)Gal(b1-4)GlcNAc(b1-3)Gal(b1-4)GlcNAc(b1-2)[Gal(b1-3)GlcNAc(b1-3)Gal(b1-4)GlcNAc(b1-3)Gal(b1-4)GlcNAc(b1-6)]Man(a1-6)[Gal(b1-3)GlcNAc(b1-3)Gal(b1-4)GlcNAc(b1-3)Gal(b1-4)GlcNAc(b1-2)Man(a1-3)]Man(b1-4)GlcNAc(b1-4)[Fuc(a1-6)]GlcNAc
Method in brief: as §1

[18] = target: Gal(b1-3)GlcNAc(b1-3)Gal(b1-4)GlcNAc(b1-6)[Gal(b1-3)GlcNAc(b1-3)]Gal(b1-4)Glc
Method in brief: as §1

[19] = target: Gal(b1-3)GlcNAc(b1-3)Gal(b1-4)[Fuc(a1-3)]GlcNAc
Method in brief: as §1

[20] = target: Gal(b1-3)GlcNAc(b1-3)Gal(b1-4)[Fuc(a1-3)]GlcNAc(b1-6)[Gal(b1-3)GlcNAc(b1-3)]Gal(b1-4)Glc
Method in brief: as §1

[21] = target: Gal(b1-3)GlcNAc(b1-3)GalNAc
Method in brief: as §1

[22] = target: Gal(b1-3)GlcNAc(b1-6)Gal(b1-4)GlcNAc
Method in brief: as §1

[23] = target: Gal(b1-3)GlcNAc(b1-6)GalNAc
Method in brief: as §1

[24] = target: Gal(b1-3)GlcNAc(b1-6)[Gal(b1-3)]GalNAc
Method in brief: as §1

Gal(b1-3)GlcNAc6S = target: Gal(b1-3)GlcNAc6S
Method in brief: as §1

[25] = target: Gal(b1-3)[Fuc(a1-4)]GlcNAc
Method in brief: as §1

[26] = target: Gal(b1-3)[Fuc(a1-4)]GlcNAc(b1-2)Man
Method in brief: as §1

[27] = target: Gal(b1-3)[Fuc(a1-4)]GlcNAc(b1-2)Man(a1-3)[Gal(b1-3)[Fuc(a1-4)]GlcNAc(b1-2)Man(a1-6)]Man(b1-4)GlcNAc(b1-4)[Fuc(a1-6)]GlcNAc
Method in brief: as §1

[28] = target: Gal(b1-3)[Fuc(a1-4)]GlcNAc(b1-3)Gal(b1-3)[Fuc(a1-4)]GlcNAc
Method in brief: as §1

[29] = target: Gal(b1-3)[Fuc(a1-4)]GlcNAc(b1-3)Gal(b1-4)[Fuc(a1-3)]GlcNAc
Method in brief: as §1

[30] = target: Gal(b1-3)[Fuc(a1-4)]GlcNAc(b1-6)GalNAc
Method in brief: as §1

[31] = target: Gal(b1-3)[GlcNAc(b1-6)]GalNAc
Method in brief: as §1

[32] = target: Gal(b1-3)[Neu5Ac(a2-6)]GalNAc
Method in brief: as §1

[33] = target: Gal(b1-3)[Neu5Ac(a2-6)]GlcNAc(b1-4)Gal(b1-4)Glc
Method in brief: as §1

[34] = target: Gal(b1-3)[Neu5Ac(b2-6)]GalNAc
Method in brief: as §1

Gal(b1-4)Gal = target: Gal(b1-4)Gal
Method in brief: as §1

[35] = target: Gal(b1-4)GalNAc(a1-3)[Fuc(a1-2)]Gal(b1-4)GlcNAc
Method in brief: as §1

[36] = target: Gal(b1-4)GalNAc(b1-3)[Fuc(a1-2)]Gal(b1-4)GlcNAc
Method in brief: as §1

B1: CM2 (Cordyceps militaris) (protein)
chain: MEIAEQNVGKSCAIVNLIPPKEGSNIWTAKQVTIARNLPPNRGTGRHQIDWSFGPVKVTGYVDTTNWEIGVTVSIMGIDLGTVYGNLRDGVVLNVDLFLAKGQVRFYLKNGNEVWVHLSVEIRFDGKFEGDYKIITV
With B1 the “glycan array binding signal (z-score)” value (Gal(b1-2)Gal) was 1.72, the “glycan array binding signal (z-score)” value (Gal(b1-3)Gal) was 0.686 and the “glycan array binding signal (z-score)” value (Gal(b1-3)Gal(b1-4)GlcNAc) was -0.624. For the same binder, the “glycan array binding signal (z-score)” value (Gal(b1-3)GalNAc) was 0.369, the “glycan array binding signal (z-score)” value [1] was 0.886 and the “glycan array binding signal (z-score)” value [2] was -0.642. For the same binder, the “glycan array binding signal (z-score)” value (Gal(b1-3)GalNAc(b1-3)Gal) was -1.31, the “glycan array binding signal (z-score)” value [3] was 1.44 and the “glycan array binding signal (z-score)” value [4] was -0.582. For the same binder, the “glycan array binding signal (z-score)” value [5] was -0.259, the “glycan array binding signal (z-score)” value (Gal(b1-3)GlcNAc) was -1.5 and the “glycan array binding signal (z-score)” value [6] was -0.31. The “glycan array binding signal (z-score)” value [7] was 0.701, the “glycan array binding signal (z-score)” value (Gal(b1-3)GlcNAc(b1-2)Man) was 0.405 and the “glycan array binding signal (z-score)” value [8] was -0.292. The “glycan array binding signal (z-score)” value [9] was -0.624, the “glycan array binding signal (z-score)” value [10] was -0.071 and the “glycan array binding signal (z-score)” value [11] was 0.007. The “glycan array binding signal (z-score)” value [12] was -0.396, the “glycan array binding signal (z-score)” value [13] was 0.82 and the “glycan array binding signal (z-score)” value [14] was 1.1. For the same binder, the “glycan array binding signal (z-score)” value [15] was -0.227, the “glycan array binding signal (z-score)” value [16] was 0.677 and the “glycan array binding signal (z-score)” value [17] was -0.249. The “glycan array binding signal (z-score)” value [18] was 0.866, the “glycan array binding signal (z-score)” value [19] was -0.064 and the “glycan array binding signal (z-score)” value [20] was 1.15. The “glycan array binding signal (z-score)” value [21] was 0.628, the “glycan array binding signal (z-score)” value [22] was 0.36 and the “glycan array binding signal (z-score)” value [23] was 0.957. For the same binder, the “glycan array binding signal (z-score)” value [24] was -0.296, the “glycan array binding signal (z-score)” value (Gal(b1-3)GlcNAc6S) was 0.891 and the “glycan array binding signal (z-score)” value [25] was -0.977. The “glycan array binding signal (z-score)” value [26] was 0.854, the “glycan array binding signal (z-score)” value [27] was 0.551 and the “glycan array binding signal (z-score)” value [28] was -0.634. The “glycan array binding signal (z-score)” value [29] was 0.219, the “glycan array binding signal (z-score)” value [30] was 0.038 and the “glycan array binding signal (z-score)” value [31] was 0.629. The “glycan array binding signal (z-score)” value [32] was -0.79, the “glycan array binding signal (z-score)” value [33] was 0.195 and the “glycan array binding signal (z-score)” value [34] was 0.422. For the same binder, the “glycan array binding signal (z-score)” value (Gal(b1-4)Gal) was -0.999, the “glycan array binding signal (z-score)” value [35] was 1.15 and the “glycan array binding signal (z-score)” value [36] was -0.887.
